Changes are numbered by the printed parent chain. The entries are a selection whose mix differs from that of the whole data set. Calls are pooled over several reports, among them a noisy single-well screen. The list shows a part of the results. This is one part of the list.
Assays:
Conditions in all cases: stereoisomer not certain
OR2T5 = tested on: T1, OR2T5
T1 sequence (whole entry): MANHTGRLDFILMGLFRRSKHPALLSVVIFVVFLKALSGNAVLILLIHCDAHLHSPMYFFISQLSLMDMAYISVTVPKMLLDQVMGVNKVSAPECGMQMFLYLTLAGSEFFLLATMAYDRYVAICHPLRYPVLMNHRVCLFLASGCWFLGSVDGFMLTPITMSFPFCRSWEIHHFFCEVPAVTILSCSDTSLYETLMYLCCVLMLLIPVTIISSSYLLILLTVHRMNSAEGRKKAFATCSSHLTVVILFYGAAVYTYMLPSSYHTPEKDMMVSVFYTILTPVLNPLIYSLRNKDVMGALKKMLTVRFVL
Method in brief: (§1)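 Whether a receptor–molecule pair is responsive (active) rests on the original authors' judgment that its measured signal was statistically different from baseline. Pairs without that judgment are non-responsive (inactive). Sources used varied assay methods, commonly transient luciferase assays in mammalian cell lines.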

Chains of the proteins cited; added tags and fusions are not shown. A line that says so, or that is headed by a name, gives the form on record, which may keep a tag or linker.
OR2W1, as listed by the source: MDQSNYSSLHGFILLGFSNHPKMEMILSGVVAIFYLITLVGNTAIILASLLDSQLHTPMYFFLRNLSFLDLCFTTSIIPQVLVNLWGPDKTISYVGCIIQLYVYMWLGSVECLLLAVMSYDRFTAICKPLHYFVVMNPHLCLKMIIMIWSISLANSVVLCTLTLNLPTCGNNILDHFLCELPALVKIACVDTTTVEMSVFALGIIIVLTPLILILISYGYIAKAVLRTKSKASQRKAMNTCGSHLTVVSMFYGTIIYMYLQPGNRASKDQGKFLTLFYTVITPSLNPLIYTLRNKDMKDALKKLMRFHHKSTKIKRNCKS

OR2T6 = tested on: T2, OR2T6
T2 sequence (whole entry): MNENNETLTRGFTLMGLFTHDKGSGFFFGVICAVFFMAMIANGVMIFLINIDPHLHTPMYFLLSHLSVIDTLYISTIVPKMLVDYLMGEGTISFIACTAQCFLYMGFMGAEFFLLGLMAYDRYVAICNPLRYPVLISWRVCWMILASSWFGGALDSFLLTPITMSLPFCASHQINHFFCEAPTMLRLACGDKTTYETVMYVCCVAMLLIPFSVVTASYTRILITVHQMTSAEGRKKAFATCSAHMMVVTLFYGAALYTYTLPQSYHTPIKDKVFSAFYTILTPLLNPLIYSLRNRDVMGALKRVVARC
Method in brief: as §1

OR2T8 = tested on: T3, OR2T8
T3 sequence (whole entry): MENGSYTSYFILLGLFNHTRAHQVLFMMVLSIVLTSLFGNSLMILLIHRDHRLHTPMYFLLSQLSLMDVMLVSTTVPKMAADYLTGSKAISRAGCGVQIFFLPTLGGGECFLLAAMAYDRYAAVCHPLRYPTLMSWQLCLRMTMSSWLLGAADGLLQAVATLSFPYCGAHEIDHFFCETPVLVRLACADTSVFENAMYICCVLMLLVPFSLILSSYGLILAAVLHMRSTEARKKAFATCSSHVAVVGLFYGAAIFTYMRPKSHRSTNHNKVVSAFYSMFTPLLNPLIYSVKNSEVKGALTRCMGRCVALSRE
Method in brief: as §1

OR2V1 = tested on: T4, OR2V1
T4 sequence (whole entry): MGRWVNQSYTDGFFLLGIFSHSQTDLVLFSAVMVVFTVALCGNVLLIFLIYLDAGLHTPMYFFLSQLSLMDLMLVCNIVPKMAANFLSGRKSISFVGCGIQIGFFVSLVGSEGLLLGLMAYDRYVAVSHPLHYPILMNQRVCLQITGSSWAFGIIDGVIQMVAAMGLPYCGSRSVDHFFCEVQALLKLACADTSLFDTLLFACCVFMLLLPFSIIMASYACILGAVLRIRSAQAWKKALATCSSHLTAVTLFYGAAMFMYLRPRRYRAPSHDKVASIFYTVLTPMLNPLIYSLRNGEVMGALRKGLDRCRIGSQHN
Method in brief: as §1

OR2V2 = tested on: T5, OR2V2
T5 sequence (whole entry): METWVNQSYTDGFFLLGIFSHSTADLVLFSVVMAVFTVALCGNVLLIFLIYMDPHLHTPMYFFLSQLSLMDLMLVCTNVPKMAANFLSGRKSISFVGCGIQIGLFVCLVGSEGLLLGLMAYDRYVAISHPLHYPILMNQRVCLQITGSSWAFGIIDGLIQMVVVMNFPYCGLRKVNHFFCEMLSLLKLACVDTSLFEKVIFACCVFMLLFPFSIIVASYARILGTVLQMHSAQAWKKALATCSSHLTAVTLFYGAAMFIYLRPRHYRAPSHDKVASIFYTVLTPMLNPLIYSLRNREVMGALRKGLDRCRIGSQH
Method in brief: as §1

OR2W1 (Homo sapiens) = target: T6, OR2W1 (Homo sapiens) (UniProt Q9Y3N9)
T6 sequence (whole entry): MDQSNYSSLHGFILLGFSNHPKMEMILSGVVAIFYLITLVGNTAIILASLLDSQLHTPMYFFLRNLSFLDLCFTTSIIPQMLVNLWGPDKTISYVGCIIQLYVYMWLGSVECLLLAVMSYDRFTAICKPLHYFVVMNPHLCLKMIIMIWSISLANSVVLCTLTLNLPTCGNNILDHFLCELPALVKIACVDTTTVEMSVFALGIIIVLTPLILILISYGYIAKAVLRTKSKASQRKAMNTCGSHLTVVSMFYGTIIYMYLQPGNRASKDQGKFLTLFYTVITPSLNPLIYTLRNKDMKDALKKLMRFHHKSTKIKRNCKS
Method in brief: as §1

OR2W1 [1] = tested on: T7, OR2W1
T7 sequence (whole entry): T6 sequence (whole entry) with D296N
Method in brief: as §1

OR2W3 (Homo sapiens) = target: T8, OR2W3 (Homo sapiens) (UniProt Q7Z3T1)
T8 sequence (whole entry): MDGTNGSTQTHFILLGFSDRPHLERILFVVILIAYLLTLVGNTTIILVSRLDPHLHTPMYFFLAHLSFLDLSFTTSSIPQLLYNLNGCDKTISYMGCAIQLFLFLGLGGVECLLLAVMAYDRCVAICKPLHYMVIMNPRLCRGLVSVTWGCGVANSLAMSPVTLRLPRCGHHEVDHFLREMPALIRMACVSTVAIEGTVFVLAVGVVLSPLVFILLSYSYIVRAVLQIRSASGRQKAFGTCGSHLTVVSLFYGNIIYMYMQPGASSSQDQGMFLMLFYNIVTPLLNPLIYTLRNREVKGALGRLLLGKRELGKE
Method in brief: as §1

OR2W3 = tested on: T9, OR2W3
T9 sequence (whole entry): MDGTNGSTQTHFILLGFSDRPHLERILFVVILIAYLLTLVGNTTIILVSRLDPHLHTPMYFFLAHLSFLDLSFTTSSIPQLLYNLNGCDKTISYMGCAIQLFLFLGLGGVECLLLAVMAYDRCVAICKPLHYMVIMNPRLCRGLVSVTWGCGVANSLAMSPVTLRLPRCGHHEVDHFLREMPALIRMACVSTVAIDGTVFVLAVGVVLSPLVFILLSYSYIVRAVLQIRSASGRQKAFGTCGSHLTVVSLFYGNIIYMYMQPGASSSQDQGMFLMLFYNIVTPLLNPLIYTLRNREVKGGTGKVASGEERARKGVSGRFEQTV
Method in brief: as §1

OR2W5P (Homo sapiens) = target: T10, OR2W5P (Homo sapiens) (UniProt A6NFC9)
T10 sequence (whole entry): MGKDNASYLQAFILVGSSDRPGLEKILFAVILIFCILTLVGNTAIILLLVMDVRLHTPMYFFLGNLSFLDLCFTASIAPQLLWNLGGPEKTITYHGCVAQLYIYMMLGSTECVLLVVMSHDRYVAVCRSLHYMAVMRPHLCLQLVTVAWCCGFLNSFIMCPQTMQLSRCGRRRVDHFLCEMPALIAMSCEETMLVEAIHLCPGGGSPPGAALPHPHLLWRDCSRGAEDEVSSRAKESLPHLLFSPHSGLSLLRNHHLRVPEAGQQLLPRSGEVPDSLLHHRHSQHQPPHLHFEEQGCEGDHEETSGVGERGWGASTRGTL
Method in brief: as §1

OR2Y1 = tested on: T11, OR2Y1
T11 sequence (whole entry): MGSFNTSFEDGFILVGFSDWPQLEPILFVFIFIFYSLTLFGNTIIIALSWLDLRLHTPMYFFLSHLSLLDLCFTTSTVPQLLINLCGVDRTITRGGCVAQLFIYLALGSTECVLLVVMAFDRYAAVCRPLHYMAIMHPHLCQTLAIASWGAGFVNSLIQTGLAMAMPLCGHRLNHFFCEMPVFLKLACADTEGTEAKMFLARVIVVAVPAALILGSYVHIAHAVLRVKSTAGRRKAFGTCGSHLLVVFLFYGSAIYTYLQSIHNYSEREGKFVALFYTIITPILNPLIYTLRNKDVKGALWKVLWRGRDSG
Method in brief: as §1

OR2Z1 (Homo sapiens) = target: T12, OR2Z1 (Homo sapiens) (UniProt Q8NG97)
T12 sequence (whole entry): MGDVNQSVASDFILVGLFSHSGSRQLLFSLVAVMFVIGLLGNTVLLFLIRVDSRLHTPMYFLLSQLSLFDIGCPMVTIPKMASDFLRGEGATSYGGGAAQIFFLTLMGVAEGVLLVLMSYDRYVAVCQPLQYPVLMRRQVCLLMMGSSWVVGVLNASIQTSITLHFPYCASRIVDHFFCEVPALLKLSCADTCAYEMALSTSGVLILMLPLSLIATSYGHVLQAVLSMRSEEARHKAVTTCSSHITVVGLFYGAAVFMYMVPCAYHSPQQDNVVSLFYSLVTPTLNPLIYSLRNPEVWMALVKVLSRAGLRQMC
Method in brief: as §1

OR3A1 (Homo sapiens) = target: T13, OR3A1 (Homo sapiens) (UniProt P47881)
T13 sequence (whole entry): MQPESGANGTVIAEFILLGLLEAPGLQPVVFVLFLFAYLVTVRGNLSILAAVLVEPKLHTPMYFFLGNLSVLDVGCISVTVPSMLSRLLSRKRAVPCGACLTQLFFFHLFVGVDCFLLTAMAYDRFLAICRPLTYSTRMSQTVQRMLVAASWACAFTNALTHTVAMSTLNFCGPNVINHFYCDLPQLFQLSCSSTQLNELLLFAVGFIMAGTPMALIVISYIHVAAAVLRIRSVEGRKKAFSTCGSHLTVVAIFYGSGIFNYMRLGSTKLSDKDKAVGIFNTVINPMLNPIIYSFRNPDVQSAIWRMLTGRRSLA
Method in brief: as §1

OR3A2 (Homo sapiens) = target: T14, OR3A2 (Homo sapiens) (UniProt P47893)
T14 sequence (whole entry): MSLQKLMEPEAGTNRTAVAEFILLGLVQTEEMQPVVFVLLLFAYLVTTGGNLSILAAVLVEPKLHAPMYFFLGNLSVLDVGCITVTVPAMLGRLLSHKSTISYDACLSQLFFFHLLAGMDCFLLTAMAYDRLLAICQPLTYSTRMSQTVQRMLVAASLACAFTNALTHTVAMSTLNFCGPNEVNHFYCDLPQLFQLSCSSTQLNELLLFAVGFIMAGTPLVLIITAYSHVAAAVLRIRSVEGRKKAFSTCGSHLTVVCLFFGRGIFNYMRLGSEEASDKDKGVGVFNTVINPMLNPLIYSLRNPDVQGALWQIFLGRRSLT
Method in brief: as §1

OR2W1 [2] = tested on: T15, OR2W1; remark: listed apart in the source
T15 sequence (whole entry): T6 sequence (whole entry) with M81V
Method in brief: as §1
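Also: active if original authors judged signal statistically different from baseline.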

Row | Structure (SMILES) | odorant receptor agonist call (OR2T5) | odorant receptor agonist call (OR2T6) | odorant receptor agonist call (OR2T8) | odorant receptor agonist call (OR2V1) | odorant receptor agonist call (OR2V2) | odorant receptor agonist call (OR2W1 (Homo sapiens)) | odorant receptor agonist call (OR2W1 [1]) | odorant receptor agonist call (OR2W3 (Homo sapiens)) | odorant receptor agonist call (OR2W3) | odorant receptor agonist call (OR2W5P (Homo sapiens)) | odorant receptor agonist call (OR2Y1) | odorant receptor agonist call (OR2Z1 (Homo sapiens)) | odorant receptor agonist call (OR3A1 (Homo sapiens)) | odorant receptor agonist call (OR3A2 (Homo sapiens)) | odorant receptor agonist call (OR2W1 [2])
1 | CCCCCC(=O)O | inactive | inactive | inactive | inactive | inactive | inactive | inactive | active | inactive | inactive | inactive | inactive | inactive | inactive | –
2 | O=C1CCCCCCCCCCCCCCO1 | inactive | inactive | inactive | inactive | inactive | inactive | inactive | – | inactive | inactive | inactive | inactive | inactive | inactive | –
3 | C=CCc1ccc(OC(C)=O)c(OC)c1 | inactive | inactive | active | active | inactive | active | active | – | inactive | inactive | inactive | inactive | inactive | inactive | –
4 | CC(C)CC(=O)O | inactive | inactive | inactive | inactive | inactive | inactive | inactive | inactive | inactive | inactive | inactive | inactive | inactive | inactive | –
5 | CCCCCOC(C)=O | inactive | inactive | inactive | inactive | inactive | inactive | inactive | – | inactive | inactive | inactive | inactive | inactive | inactive | –
6 | CC(=O)OC(C)(C)C1CC=C(C)CC1 (configuration not stated) | inactive | inactive | inactive | inactive | inactive | inactive | inactive | – | inactive | inactive | inactive | inactive | inactive | inactive | –
7 | CCCC(=O)O | inactive | inactive | inactive | inactive | inactive | inactive | inactive | inactive | inactive | inactive | inactive | inactive | inactive | inactive | –
8 | C=CC(C)(O)CCC=C(C)C (configuration not stated) | inactive | inactive | inactive | inactive | inactive | active | active | inactive | inactive | inactive | inactive | inactive | inactive | inactive | inactive
9 | CC1=CCC(C(C)(C)O)CC1 (configuration not stated) | inactive | inactive | inactive | inactive | inactive | active | active | – | inactive | inactive | inactive | inactive | inactive | inactive | inactive
10 | CC(C)C(=O)O | inactive | inactive | inactive | inactive | inactive | inactive | inactive | – | inactive | inactive | inactive | inactive | inactive | inactive | –
11 | CC1COCc2cc3c(cc21)C(C)(C)C(C)C3(C)C (configuration not stated) | active | active | active | inactive | active | inactive | active | – | inactive | active | active | inactive | active | inactive | –
12 | CC(C)C=O | inactive | inactive | inactive | inactive | inactive | inactive | inactive | – | inactive | inactive | inactive | inactive | inactive | active | –

— the M2OR odorant receptor database
